# Data as given in PubChem BioAssay AID1259275 (Sanger Institute, 2017)
# Screen: 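Kinase and colorectal cancer genes needed for cancer cell survival, with or without drugs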 (primary screen)
# Cells: COLO320HSR human colorectal cancer cells
# Reagents: siRNA pool against human genes
# Conditions: anchor drug added one day after transfection: BYL719 at 1 µM, cetuximab at 5 µg/ml or trametinib at 10 nM; DMSO as vehicle arm
# Read-out: 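Replicate-mean viability versus non-targeting pool control, robust z-score without drug, and per-drug synergy scores for BYL719 at 1 µM, cetuximab at 5 µg/ml and trametinib at 10 nM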
# Direction: robust z-score, siRNA alone: higher = more viable cells; strongly negative means essential
# Rule for the call: 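a gene is called essential when its robust z-score without drug falls below -3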
# Calls: active = essential (siRNA alone); inactive = no change (siRNA alone)
# In all, the deposit lists 794 reagents; below is a part drawn at random. In the full data, 13 (1.6%) were called active. 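Calls mark knock-downs lethal by themselves, not drug synergy; drugs went in a day after transfection, with DMSO as vehicle.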 Further read-outs or replicates are left out here. The record does not give: the amount of reagent, the time to read-out.
gene,"robust z-score, siRNA alone",activity call
ITSN1,0.0112,inactive
NUP62,-1.14,inactive
PRKAR2B,0.726,inactive
PDK3,0.683,inactive
PHKG1,0.463,inactive
GK,0.726,inactive
ADPGK,-0.872,inactive
PIK3CG,-0.53,inactive
CDK5R1,-0.389,inactive
FGFR1,0.726,inactive
PKLR,0.726,inactive
PKIB,0.726,inactive
TRIB1,0.726,inactive
RIPK3,0.32,inactive
FBXW7,0.726,inactive
LMTK1,-0.78,inactive
PRKAG3,-1.04,inactive
SHPK,0.637,inactive
COMMD3,0.582,inactive
CSNK2A1,0.726,inactive
KHK,0.726,inactive
NF1,0.699,inactive
MAP3K20,0.726,inactive
NEK7,-0.268,inactive
MAP2K2,0.726,inactive
GATA3,0.705,inactive
VRK1,-0.52,inactive
HK2,-0.96,inactive
PDPK1,-0.432,inactive
DGKA,-0.418,inactive
CDKL4,-0.279,inactive
MAP4K5,-0.776,inactive
LMTK2,0.726,inactive
NUAK1,-0.312,inactive
RTN4,0.726,inactive
DYRK2,0.279,inactive
PRKDC,-0.318,inactive
TSSK4,0.314,inactive
RIOK2,0.726,inactive
AKT1,0.0389,inactive
ATRX,0.726,inactive
WNK1,-0.164,inactive
ELF3,-2.59,inactive
STK3,0.726,inactive
ITPKB,0.411,inactive
MAP2K3,-0.0843,inactive
SBK1,0.284,inactive
AXIN2,-0.0723,inactive
PDK1,0.0964,inactive
MAPK9,0.726,inactive

Individual results from the list.
Under “robust z-score, siRNA alone”, PIK3CG reads -0.53
Result of PDK1 under “robust z-score, siRNA alone”: 0.0964
FGFR1, activity call = inactive
DYRK2, activity call: inactive
PDK3, activity call: inactive
